Experimental data published in PMC10604809.
Results are given in words; binding and its absence hold for the method and conditions named. Binding seen in cells or lysates may run through a third protein. Some results given as binding are weak or reduced against the parent protein; the word gives no strength. Where a sequence is shown, tags or fusion partners need not be part of it.

Protein sequences, listed by entry. Tags and fused reporters are not part of them.
UniProt P0A6Y8: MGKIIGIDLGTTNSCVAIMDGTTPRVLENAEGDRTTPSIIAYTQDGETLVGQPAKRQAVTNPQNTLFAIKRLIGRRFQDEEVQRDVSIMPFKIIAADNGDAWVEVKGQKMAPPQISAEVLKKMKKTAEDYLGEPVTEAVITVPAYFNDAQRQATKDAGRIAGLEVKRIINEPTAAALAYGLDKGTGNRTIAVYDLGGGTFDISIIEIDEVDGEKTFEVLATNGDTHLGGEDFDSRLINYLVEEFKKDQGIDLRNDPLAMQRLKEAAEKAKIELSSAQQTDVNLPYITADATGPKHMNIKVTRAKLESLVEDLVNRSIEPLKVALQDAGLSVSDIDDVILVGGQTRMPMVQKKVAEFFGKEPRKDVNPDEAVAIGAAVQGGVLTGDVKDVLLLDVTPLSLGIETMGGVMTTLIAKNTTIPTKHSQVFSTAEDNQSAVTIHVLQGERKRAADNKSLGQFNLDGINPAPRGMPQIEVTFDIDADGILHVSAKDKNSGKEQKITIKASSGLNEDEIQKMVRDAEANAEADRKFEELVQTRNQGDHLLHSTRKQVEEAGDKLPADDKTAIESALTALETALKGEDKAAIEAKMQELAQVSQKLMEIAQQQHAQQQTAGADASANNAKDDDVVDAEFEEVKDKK

Target: cYFP-tagged DnaK (E. coli HSP70) (E. coli) (UniProt P0A6Y8)
Assay: split reporter; nYFP and cYFP fusions co-expressed from one pRSF-Duet1 construct in E. coli cells; YFP fluorescence seen by fluorescence microscopy

B1: nYFP-tagged AtJ3 (Arabidopsis J3 protein, HSP40 family) (protein, UniProt Q94AW8 1-420)
chain: MFGRGPSKKSDNTKFYEILGVPKSASPEDLKKAYKKAAIKNHPDKGGDPEKFKELAQAYEVLSDPEKREIYDQYGEDALKEGMGGGGGGHDPFDIFSSFFGGGPFGGNTSRQRRQRRGEDVVHPLKVSLEDVYLGTMKKLSLSRNALCSKCNGKGSKSGASLKCGGCQGSGMKVSIRQLGPGMIQQMQHACNECKGTGETINDRDRCPQCKGDKVIPEKKVLEVNVEKGMQHSQKITFEGQADEAPDTVTGDIVFVLQQKEHPKFKRKGEDLFVEHTLSLTEALCGFQFVLTHLDGRSLLIKSNPGEVVKPDSYKAISDEGMPIYQRPFMKGKLYIHFTVEFPDSLSPDQTKALEAVLPKPSTAQLSDMEIDECEETTLHDVNIEDEMRRKAQAQREAYDDDDEDDDHPGGAQRVQCAQQ
binding: binds
